Laboratory results taken from ChEMBL document CHEMBL2424621, “Discovery, synthesis and biological evaluation of cycloprotoberberine derivatives as potential antitumor agents” (Eur J Med Chem, 2013).
Converted amounts (≈) assume the structure as drawn.

Test system: MCF7
Experiment: Antiproliferative activity against human MCF7 cells assessed as growth inhibition after 24 to 48 hrs by SRB assay
Format: functional, cell-based
Summary of the method: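 Parental MCF-7 cells and doxorubicin-resistant MCF-7/ADrR cells were tested; the resistant line was maintained in medium containing DOX. Each line was treated at 0.039–2.5 µg/mL for 24 and 48 h. Growth was read by SRB staining after TCA fixation, with absorbance at 492 nm. IC50 is the concentration reducing cell number to 50% of control, from triplicates.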

Structure (SMILES): COc1cccc2c1C(=O)c1c(O)c3c(c(O)c1C2=O)C[C@@](O)(C(=O)CO)C[C@@H]3O[C@H]1C[C@H](N)[C@H](O)[C@H](C)O1 [DOXORUBICIN]
- IC50: 0.18 µg/mL (≈ 0.331 µM)
